No constants are given. Whether binding was seen depends on the method and setting. Binding seen in cells or lysates may run through a third protein. A yes stands for co-enrichment or nearness to the bait. Other partners may have been found. A no says only that the protein was not detected with the bait. Tags and fused reporters may be left off the sequences shown.
Experiments:
Experiment in all cases: affinity purification with mass spectrometry; 3×FLAG- or 13×myc-tagged bait purified from S. pombe cell extract on α-FLAG (M2) or α-myc (9E10) antibody cross-linked to Protein G Dynabeads, 4°C for 3 h, IP buffer (20 mM HEPES pH 7.5, 100 mM NaCl, 5 mM MgCl2, 1 mM EDTA, 10% glycerol, 0.25% Triton X-100, 0.5 mM DTT); LC-MS/MS; Red1-3×FLAG also from iss10Δ, rmn1Δ and Mtl1 knockdown cells
Ars2-3×FLAG (S. pombe) = biological target: T1, Ars2-3×FLAG (S. pombe) (UniProt O94326)
T1 sequence: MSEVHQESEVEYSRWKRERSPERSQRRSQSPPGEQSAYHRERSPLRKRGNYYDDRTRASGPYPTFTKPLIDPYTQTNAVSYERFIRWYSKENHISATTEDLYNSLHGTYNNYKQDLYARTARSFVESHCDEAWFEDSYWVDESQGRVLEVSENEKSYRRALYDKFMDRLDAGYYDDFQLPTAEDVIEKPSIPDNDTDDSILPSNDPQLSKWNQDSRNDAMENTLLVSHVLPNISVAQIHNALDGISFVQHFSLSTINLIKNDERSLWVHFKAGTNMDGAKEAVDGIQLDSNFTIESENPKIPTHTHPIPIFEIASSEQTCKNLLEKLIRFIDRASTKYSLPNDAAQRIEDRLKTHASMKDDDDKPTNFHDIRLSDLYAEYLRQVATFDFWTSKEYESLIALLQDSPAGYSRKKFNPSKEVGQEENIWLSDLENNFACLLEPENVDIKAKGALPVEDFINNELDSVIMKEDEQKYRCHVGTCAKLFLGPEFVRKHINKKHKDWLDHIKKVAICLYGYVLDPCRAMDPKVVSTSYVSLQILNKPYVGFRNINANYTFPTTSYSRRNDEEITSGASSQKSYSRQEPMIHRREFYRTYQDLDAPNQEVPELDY

Amino acid sequences for entries named in this document (tags omitted).
UniProt O60016: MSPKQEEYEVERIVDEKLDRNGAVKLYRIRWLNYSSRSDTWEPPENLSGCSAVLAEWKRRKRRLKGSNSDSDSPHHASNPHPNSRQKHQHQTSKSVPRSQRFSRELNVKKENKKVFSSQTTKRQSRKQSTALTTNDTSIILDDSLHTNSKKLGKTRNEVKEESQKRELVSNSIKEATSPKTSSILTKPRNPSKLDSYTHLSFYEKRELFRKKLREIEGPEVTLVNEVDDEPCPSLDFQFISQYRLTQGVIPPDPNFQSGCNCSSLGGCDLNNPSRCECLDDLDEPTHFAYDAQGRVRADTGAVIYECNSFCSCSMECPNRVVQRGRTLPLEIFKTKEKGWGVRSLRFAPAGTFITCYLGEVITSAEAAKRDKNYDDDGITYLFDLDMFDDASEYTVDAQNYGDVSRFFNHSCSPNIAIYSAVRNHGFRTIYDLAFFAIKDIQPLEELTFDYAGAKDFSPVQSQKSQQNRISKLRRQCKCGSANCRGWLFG

Red5-3×FLAG (S. pombe) = biological target: T2, Red5-3×FLAG (S. pombe) (UniProt O74823)
T2 sequence: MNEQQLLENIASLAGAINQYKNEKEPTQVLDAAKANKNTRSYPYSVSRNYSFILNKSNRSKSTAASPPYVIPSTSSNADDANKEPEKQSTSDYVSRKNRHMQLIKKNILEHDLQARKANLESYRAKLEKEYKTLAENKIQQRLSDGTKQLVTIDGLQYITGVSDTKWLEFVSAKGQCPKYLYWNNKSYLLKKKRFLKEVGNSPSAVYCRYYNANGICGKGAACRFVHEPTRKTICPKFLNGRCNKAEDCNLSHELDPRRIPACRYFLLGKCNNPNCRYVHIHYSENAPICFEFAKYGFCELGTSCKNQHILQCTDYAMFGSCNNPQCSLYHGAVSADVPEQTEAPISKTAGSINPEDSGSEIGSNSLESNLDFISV

Rmn1-13×myc (S. pombe) = biological target: T3, Rmn1-13×myc (S. pombe) (UniProt Q9USP9)
T3 sequence: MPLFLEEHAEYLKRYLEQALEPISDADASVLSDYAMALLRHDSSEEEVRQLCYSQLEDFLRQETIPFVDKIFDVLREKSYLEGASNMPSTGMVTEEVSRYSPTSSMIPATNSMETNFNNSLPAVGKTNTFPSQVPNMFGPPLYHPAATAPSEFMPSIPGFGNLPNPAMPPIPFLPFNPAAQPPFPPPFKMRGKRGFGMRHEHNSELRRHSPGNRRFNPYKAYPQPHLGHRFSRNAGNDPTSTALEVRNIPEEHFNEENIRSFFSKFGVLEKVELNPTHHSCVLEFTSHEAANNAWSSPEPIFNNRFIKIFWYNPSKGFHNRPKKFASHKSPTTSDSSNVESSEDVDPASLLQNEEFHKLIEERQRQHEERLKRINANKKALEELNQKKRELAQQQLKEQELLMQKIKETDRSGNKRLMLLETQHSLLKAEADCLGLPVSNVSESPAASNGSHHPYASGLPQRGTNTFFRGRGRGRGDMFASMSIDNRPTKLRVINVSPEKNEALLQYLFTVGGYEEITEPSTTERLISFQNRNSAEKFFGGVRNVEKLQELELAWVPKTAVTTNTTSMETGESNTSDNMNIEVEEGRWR

- binding (Ars2-3×FLAG (S. pombe)): no binding
- binding (Red5-3×FLAG (S. pombe)): no binding
- binding (Rmn1-13×myc (S. pombe)): no binding
Substance: Clr4 (from UniProt O60016 1-490)

Source: paper PMC4024641
